The list shows a part of the results.

Chains of the proteins cited; added tags and fusions are not shown.
UniProt Q0JBA9, entry or part of it: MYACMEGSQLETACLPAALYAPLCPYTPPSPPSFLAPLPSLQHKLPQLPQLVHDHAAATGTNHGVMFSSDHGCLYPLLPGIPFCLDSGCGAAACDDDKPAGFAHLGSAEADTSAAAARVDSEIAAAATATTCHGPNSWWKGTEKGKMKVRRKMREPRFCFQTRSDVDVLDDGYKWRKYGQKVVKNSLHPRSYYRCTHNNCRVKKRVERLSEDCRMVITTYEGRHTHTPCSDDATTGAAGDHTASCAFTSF

Here are results for 42 sequences from article PMC7819943, “Rice protein-binding microarrays: a tool to detect cis-acting elements near promoter regions in rice”.

The target in the assay is OsWRKY34 (Oryza sativa, UniProt Q0JBA9 1-250). Kind of assay: protein-binding microarray (RPBM); PBS, 2% BSA, 51.3 ng/ul salmon testes DNA, 50 uM zinc acetate, 200 nM TF, 25 C, 1 h; high values mean tight binding. Particulars: protein: recombinant; tags: N-terminal polyhistidine and DsRed monomer fusion (pET32a); label: CyDye5-dUTP incorporated in the synthesized complementary strand; 3' TTTTT single-stranded linker to array surface; dsDNA, one strand shown. In outline: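 Transcription factors, each fused N-terminally to a polyhistidine tag and DsRed, were expressed in E. coli BL21-CodonPlus and purified on Ni–NTA. A custom Agilent array was made double-stranded by primer extension with Cy5-dUTP and blocked with 2% BSA. It was incubated with 200 nM protein in PBS, 2% BSA, salmon testes DNA and 50 µM zinc acetate at 25 °C for 1 h, then washed. The binding signal is per-feature fluorescence intensity (arbitrary units) read on an Axon 4000B scanner.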
For “CTCCTGTCTCTTTTTCTATATTCCTTATTTATAATTCCGACGGAGTCACCTAGTGCAG”, the binding signal was 9920 fluorescence intensity (a.u.).

Regarding “GTAGCCGCTTCCTGCCTTCCTTCCCCTTGCTCTTGCATTTCGGAGTCACCTAGTGCAG”, the binding signal was 8340 fluorescence intensity (a.u.).

Turning to “CCTTTAAGTCTATCTCTCTCATTCAATTTCTGCATTTTTCCGGAGTCACCTAGTGCAG”, the binding signal is 9270 fluorescence intensity (a.u.). “GTGCTATCTGTTCTCATATCACTACTGATCTTTGCTGGGTCGGAGTCACCTAGTGCAG”: the binding signal is 8440 fluorescence intensity (a.u.). In the case of “GCGCGCTTCCGTCCACTCGCACTGATCCTTCCGGCGGAGCCGGAGTCACCTAGTGCAG” it was 9390 fluorescence intensity (a.u.); in that of “AAATGCCTGTTCACTTTGATGCCATTTTCAACCTTACCAACGGAGTCACCTAGTGCAG”, 8100 fluorescence intensity (a.u.); in that of “TTTTCGAGCTCTTCCAACGTCACACCTCTTATCATTTTGACGGAGTCACCTAGTGCAG”, 10400 fluorescence intensity (a.u.). Consider “ATCCTTTATACATGACTTGCTTATCTTATAACTGAGCAAACGGAGTCACCTAGTGCAG”, for which the binding signal was 8050 fluorescence intensity (a.u.). In the case of “TTTATTTGGGTCATTTCTTCATCCGACAAAGCGATTTGTACGGAGTCACCTAGTGCAG” it was 8080 fluorescence intensity (a.u.). Consider “GGCAGCCCACAGCCCATAGACCACACCGCACATCGTCTTCCGGAGTCACCTAGTGCAG”, for which the binding signal is 8590 fluorescence intensity (a.u.).

As for “GATCGAATCCGACCTTAATTTTCACCTGCTCGCTGATCTCCGGAGTCACCTAGTGCAG”, the binding signal is 8600 fluorescence intensity (a.u.). In the case of “AGAGAGACATTATAATTTGCCGTTGCTCATTTTCTATTTTCGGAGTCACCTAGTGCAG” it was 10200 fluorescence intensity (a.u.); in that of “CACCCCGTATCAACACGCGTCGCTCTGCCGTCCGGCTCTCCGGAGTCACCTAGTGCAG”, 8400 fluorescence intensity (a.u.); in that of “AAAAACTCGCTGGCTTCCACCGACCGCTTCACTCGCAGCACGGAGTCACCTAGTGCAG”, 8180 fluorescence intensity (a.u.). For “GCCATTTCAGTGACCATACACACTAGTACTCCACTACACACGGAGTCACCTAGTGCAG”, the binding signal is 8070 fluorescence intensity (a.u.).

Take “TTATAAATATTTAATGCAGTTGATTTTGATCATAAAGTTTCGGAGTCACCTAGTGCAG”: the binding signal is 8790 fluorescence intensity (a.u.). “AATCCATGAAATCCTCGTCGTCTTGCCGTGTTTGGTTGGGCGGAGTCACCTAGTGCAG”: the binding signal was 11000 fluorescence intensity (a.u.).

For “TACTCATCTCTCTCAACACGTAATTTGTTCTGTTTGGTGACGGAGTCACCTAGTGCAG”, the binding signal was 9570 fluorescence intensity (a.u.).

Consider “GTTCACTACATCTGCTGCTGCTGGTCGTCGTCGTTGTCCTCGGAGTCACCTAGTGCAG”, for which the binding signal is 8200 fluorescence intensity (a.u.).

As to “CTTAGTCCGATTCCGAGTAGTTCGATCGTCGCGTGACTCCCGGAGTCACCTAGTGCAG”, the binding signal is 9020 fluorescence intensity (a.u.). For the sequence “ATCGCGCAGCTGTGTTCTGCTTTGCCGGGTAGGCGTTTTTCGGAGTCACCTAGTGCAG”, the binding signal was 10600 fluorescence intensity (a.u.). In the case of “CGTTGTTTAAGTCTTATTATAGCTAGATCGTTCATCCTTACGGAGTCACCTAGTGCAG”, the binding signal is 8510 fluorescence intensity (a.u.).

For “GCTTCGCGCGCGCGCGCGTCTCTCTCCGTCCCAAGCTCGCCGGAGTCACCTAGTGCAG”, the binding signal is 9720 fluorescence intensity (a.u.). Turning to “CTTCGGCCTTCGTTTGACCGCTTCTAATCTATGTTATGTGCGGAGTCACCTAGTGCAG”, the binding signal is 8670 fluorescence intensity (a.u.).

For “CGCCTCACTTGCGCCGGCGACCGGATGACGCCTGCATCCCCGGAGTCACCTAGTGCAG”, the binding signal is 8650 fluorescence intensity (a.u.). For the sequence “CGGGGATGCGGCGGGCTGTGGCGTGATGTGTGGATCGGAGCGGAGTCACCTAGTGCAG”, the binding signal is 10100 fluorescence intensity (a.u.).

For “TGAGGTTGGGGTTGTGGCGCGGGACGAAGGCGGAGGACTCCGGAGTCACCTAGTGCAG”, the binding signal was 9840 fluorescence intensity (a.u.). Consider “TGGCAATGGGGCGGGTCGGGGCCGGGTTGGTCTGGAACGGCGGAGTCACCTAGTGCAG”, for which the binding signal was 14500 fluorescence intensity (a.u.).

“CCTCATGATGATGCCGAACGTCTCGACATTGACCGCGCCCCGGAGTCACCTAGTGCAG”: the binding signal is 9370 fluorescence intensity (a.u.). With “GGCCTGTTTTGTTTCGGGCTAACGTTTGGCCCACGAAACACGGAGTCACCTAGTGCAG”, the binding signal was 8100 fluorescence intensity (a.u.). In the case of “TTTTTCTTTTCTCGCGTACAGCTGGACGCTTCGTTTGCTTCGGAGTCACCTAGTGCAG”, the binding signal is 11100 fluorescence intensity (a.u.). Take “AGTTGAATTTTCTAGTTACTACTAACTAATTGCTTCTCTACGGAGTCACCTAGTGCAG”: the binding signal was 8270 fluorescence intensity (a.u.). “ATTAGCACACCATTGAGCATGAGCCTGACAAACTTCATTTCGGAGTCACCTAGTGCAG”: the binding signal was 8080 fluorescence intensity (a.u.). Consider “TAGCCCACTGTAACATGTTCACATTGGATAAAATCAAGATCGGAGTCACCTAGTGCAG”, for which the binding signal was 8250 fluorescence intensity (a.u.).

On to “GCCCACGCTCACCGACTCCATCGACGTCACGCTCACCGCCCGGAGTCACCTAGTGCAG”, for which the binding signal was 8480 fluorescence intensity (a.u.). With “CGCCTACTTCTTCTGCATTACCCGCGCCTCCCGAAAAAAACGGAGTCACCTAGTGCAG”, the binding signal is 8510 fluorescence intensity (a.u.). Turning to “GTCTAGTTCACATCGTGTCAGTGTTCCAAAATCGCCTAGCCGGAGTCACCTAGTGCAG”, the binding signal was 9280 fluorescence intensity (a.u.). As for “GGCAAGAGCTTAGAGGATGATGATAAAGAAGGGTTCTTCCCGGAGTCACCTAGTGCAG”, the binding signal was 8350 fluorescence intensity (a.u.).

For the sequence “TGGCATGGTGGTACTACTACTCTCTGTTCCGTTTCAAAAACGGAGTCACCTAGTGCAG”, the binding signal is 9500 fluorescence intensity (a.u.). For the sequence “CGGAAGCATATATATGTACACTGTCACTGACATGCTCGTCCGGAGTCACCTAGTGCAG”, the binding signal was 8240 fluorescence intensity (a.u.). For the sequence “AAAGGGAAAACAACTTATTCCTTTTTGCATTTTATTTTCCCGGAGTCACCTAGTGCAG”, the binding signal was 9590 fluorescence intensity (a.u.). For “CTCTGTGTTGTTTTTGGCATGTGTTTGATATTTGGAGTTCCGGAGTCACCTAGTGCAG”, the binding signal is 16600 fluorescence intensity (a.u.).
